Values from PubChem BioAssay AID1259254 (NCATS, 2017).
Here is a random part of about 59,000 deposited reagents. Of all reagents, about 1,550 (2.6%) were called active. 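G2 share is only a proxy for re-replication; each gene was hit by three separate siRNAs, and active genes were retested.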 Unmarked entries are inactive. Reagents against one gene are numbered here. Further read-outs or replicates are left out here. The record does not give: the amount of reagent.

Test: 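Gene knock-downs that lead to re-replication, shown by excess G2 DNA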 (primary screen)
Cells: human HCT116 colorectal cancer cells
Reagents: single siRNA against human genes
Duration: 3 days
Read-out: 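Nuclei stained with Hoechst and imaged; cell-cycle phase assigned by DNA content; G2 share scaled per plate, non-targeting siRNA 0%, GMNN siRNA 100%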
Reading the numbers: G2 robust z-score: higher = more G2 cells, more excess DNA replication
Rule for the call: 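Active siRNAs have a G2 robust z of 5 or more median absolute deviations over the median, which in these data means about 38% or higher of GMNN control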

| gene knocked down | siRNA no. | G2 robust z-score |
| --- | --- | --- |
| CTBS (chitobiase) | 1 | -1.05 |
| CTBS (chitobiase) | 2 | -0.144 |
| CTBS (chitobiase) | 3 | 3.76 |
| CPT2 (carnitine palmitoyltransferase 2) | 1 | 1.72 |
| CPT2 (carnitine palmitoyltransferase 2) | 2 | 1.11 |
| CPT2 (carnitine palmitoyltransferase 2) | 3 | 0.951 |
| PRKCH (protein kinase C eta) | 1 | 0.759 |
| PRKCH (protein kinase C eta) | 2 | 1.02 |
| PRKCH (protein kinase C eta) | 3 | -0.314 |
| NUP62 (nucleoporin 62) | 1 | 4.38 |
| NUP62 (nucleoporin 62) | 2 | -0.287 |
| NUP62 (nucleoporin 62) | 3 | 1.05 |
| PARK7 (Parkinsonism associated deglycase) | 1 | -0.997 |
| PARK7 (Parkinsonism associated deglycase) | 2 | -0.97 |
| PARK7 (Parkinsonism associated deglycase) | 3 | -0.459 |
| MOGAT2 (monoacylglycerol O-acyltransferase 2) | 1 | 0.701 |
| MOGAT2 (monoacylglycerol O-acyltransferase 2) | 2 | 1.71 |
| MOGAT2 (monoacylglycerol O-acyltransferase 2) | 3 | 2.2 |
| LSM2 | 1 | 0.722 |
| LSM2 | 2 | 3.04 |
| LSM2 | 3 | 0.742 |
| RPEL1 (ribulose-5-phosphate-3-epimerase like 1) | 1 | 1.54 |
| RPEL1 (ribulose-5-phosphate-3-epimerase like 1) | 2 | 3.7 |
| RPEL1 (ribulose-5-phosphate-3-epimerase like 1) | 3 | 0.471 |
| RPEL1 (ribulose-5-phosphate-3-epimerase like 1) | 4 | 2.39 |
| RPEL1 (ribulose-5-phosphate-3-epimerase like 1) | 5 | 1.75 |
| RPEL1 (ribulose-5-phosphate-3-epimerase like 1) | 6 | 0.594 |
| LOC649201 (retired record) | 1 | 0.328 |
| LOC649201 (retired record) | 2 | 0.033 |
| LOC649201 (retired record) | 3 | -0.312 |
| CCNY (cyclin Y) | 1 | 0.307 |
| CCNY (cyclin Y) | 2 | -0.406 |
| CCNY (cyclin Y) | 3 | 0.475 |
| WDR64 (WD repeat domain 64) | 1 | -0.245 |
| WDR64 (WD repeat domain 64) | 2 | 1.14 |
| WDR64 (WD repeat domain 64) | 3 | -0.461 |
| PSG3 (pregnancy specific beta-1-glycoprotein 3) | 1 | 3.04 |
| PSG3 (pregnancy specific beta-1-glycoprotein 3) | 2 | 0.42 |
| PSG3 (pregnancy specific beta-1-glycoprotein 3) | 3 | -0.53 |
| UFSP1 (UFM1 specific peptidase 1) | 1 | -0.946 |
| UFSP1 (UFM1 specific peptidase 1) | 2 | 2.09 |
| UFSP1 (UFM1 specific peptidase 1) | 3 | 1.3 |
| SLC22A1 | 1 | -0.976 |
| SLC22A1 | 2 | -1.03 |
| SLC22A1 | 3 | -0.83 |
| INSIG1 (insulin induced gene 1) | 1 | 3.16 |
| INSIG1 (insulin induced gene 1) | 2 | -0.43 |
| INSIG1 (insulin induced gene 1) | 3 | 0.481 |
| HCG27 (HLA complex group 27) | 1 | -1.15 |
| HCG27 (HLA complex group 27) | 2 | -0.945 |
| HCG27 (HLA complex group 27) | 3 | -0.388 |
| RALGAPA2 (Ral GTPase activating protein catalytic subunit alpha 2) | 1 | -0.608 |
| RALGAPA2 (Ral GTPase activating protein catalytic subunit alpha 2) | 2 | 0.0855 |
| RALGAPA2 (Ral GTPase activating protein catalytic subunit alpha 2) | 3 | 0.187 |
| SCRT2 (scratch family transcriptional repressor 2) | 1 | -1.28 |
| SCRT2 (scratch family transcriptional repressor 2) | 2 | -0.0875 |
| SCRT2 (scratch family transcriptional repressor 2) | 3 | 1.3 |
| EDEM2 (ER degradation enhancing alpha-mannosidase like protein 2) | 1 | 8.6 (active) |
| EDEM2 (ER degradation enhancing alpha-mannosidase like protein 2) | 2 | 0.618 |
| EDEM2 (ER degradation enhancing alpha-mannosidase like protein 2) | 3 | 2.82 |
| ZNF462 (zinc finger protein 462) | 1 | 0.0275 |
| ZNF462 (zinc finger protein 462) | 2 | -0.787 |
| ZNF462 (zinc finger protein 462) | 3 | -0.832 |
| POU2AF3 (POU class 2 homeobox associating factor 3) | 1 | 0.62 |
| POU2AF3 (POU class 2 homeobox associating factor 3) | 2 | 1.33 |
| POU2AF3 (POU class 2 homeobox associating factor 3) | 3 | -0.805 |
| METTL4 (methyltransferase 4, N6-adenosine) | 1 | 1.42 |
| METTL4 (methyltransferase 4, N6-adenosine) | 2 | 0.407 |
| METTL4 (methyltransferase 4, N6-adenosine) | 3 | 1.61 |

7 entries from above, reformatted:
gene knocked down	siRNA no.	G2 robust z-score
PRKCH (protein kinase C eta)	2	1.02
PRKCH (protein kinase C eta)	3	-0.314
NUP62 (nucleoporin 62)	1	4.38
NUP62 (nucleoporin 62)	2	-0.287
NUP62 (nucleoporin 62)	3	1.05
PARK7 (Parkinsonism associated deglycase)	1	-0.997
PARK7 (Parkinsonism associated deglycase)	2	-0.97
